According to PMC6713327:
Results are given in words; binding and its absence hold for the method and conditions named. Binding seen in cells or lysates may run through a third protein. These calls come from enrichment with a bait or labelling near it, and not all partners need be listed. For some assays here: A no says only that the protein was not detected with the bait. One block for each molecule: values may come before it.

Sequences of proteins named here, by UniProt entry; tags and fusion partners are left off.
UniProt P20585: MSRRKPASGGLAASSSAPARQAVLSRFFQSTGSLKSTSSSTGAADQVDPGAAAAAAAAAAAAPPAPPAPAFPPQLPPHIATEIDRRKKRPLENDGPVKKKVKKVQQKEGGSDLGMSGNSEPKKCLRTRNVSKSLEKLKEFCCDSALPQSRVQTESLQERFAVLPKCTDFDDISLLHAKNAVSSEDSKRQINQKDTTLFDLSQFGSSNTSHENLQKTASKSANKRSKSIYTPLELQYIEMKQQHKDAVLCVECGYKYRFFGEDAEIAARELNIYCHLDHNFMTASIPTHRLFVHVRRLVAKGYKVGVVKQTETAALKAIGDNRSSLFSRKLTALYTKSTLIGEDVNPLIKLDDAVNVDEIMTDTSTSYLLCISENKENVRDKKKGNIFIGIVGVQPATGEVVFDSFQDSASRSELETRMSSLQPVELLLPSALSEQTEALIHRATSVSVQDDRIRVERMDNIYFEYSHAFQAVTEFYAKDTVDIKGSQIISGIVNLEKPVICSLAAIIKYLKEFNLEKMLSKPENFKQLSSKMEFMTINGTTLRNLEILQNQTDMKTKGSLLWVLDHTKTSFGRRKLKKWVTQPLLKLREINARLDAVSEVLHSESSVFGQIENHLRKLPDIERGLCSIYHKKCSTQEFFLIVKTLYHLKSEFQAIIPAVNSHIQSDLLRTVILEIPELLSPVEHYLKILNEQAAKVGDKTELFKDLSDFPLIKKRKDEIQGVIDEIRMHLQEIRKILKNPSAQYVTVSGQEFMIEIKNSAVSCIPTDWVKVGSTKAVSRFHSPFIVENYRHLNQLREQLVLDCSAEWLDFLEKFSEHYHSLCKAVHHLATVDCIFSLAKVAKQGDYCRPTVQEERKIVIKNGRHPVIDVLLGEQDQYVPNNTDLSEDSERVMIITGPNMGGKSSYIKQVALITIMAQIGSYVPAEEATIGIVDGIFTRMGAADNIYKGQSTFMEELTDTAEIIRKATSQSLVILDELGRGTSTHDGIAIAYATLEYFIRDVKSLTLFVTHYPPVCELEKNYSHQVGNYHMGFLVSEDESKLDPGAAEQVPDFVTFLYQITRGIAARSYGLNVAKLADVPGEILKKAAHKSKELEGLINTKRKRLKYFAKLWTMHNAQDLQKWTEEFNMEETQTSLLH
UniProt P35249: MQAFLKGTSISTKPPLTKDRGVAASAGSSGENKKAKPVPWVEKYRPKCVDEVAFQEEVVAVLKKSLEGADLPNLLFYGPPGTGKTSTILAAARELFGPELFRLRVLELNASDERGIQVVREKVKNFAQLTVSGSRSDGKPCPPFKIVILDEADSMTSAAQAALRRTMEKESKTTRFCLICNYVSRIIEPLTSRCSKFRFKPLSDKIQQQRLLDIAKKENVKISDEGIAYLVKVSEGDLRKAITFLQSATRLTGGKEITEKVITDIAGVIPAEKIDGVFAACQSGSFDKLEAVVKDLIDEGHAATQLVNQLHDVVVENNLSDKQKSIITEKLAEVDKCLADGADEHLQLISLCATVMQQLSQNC
UniProt O95714: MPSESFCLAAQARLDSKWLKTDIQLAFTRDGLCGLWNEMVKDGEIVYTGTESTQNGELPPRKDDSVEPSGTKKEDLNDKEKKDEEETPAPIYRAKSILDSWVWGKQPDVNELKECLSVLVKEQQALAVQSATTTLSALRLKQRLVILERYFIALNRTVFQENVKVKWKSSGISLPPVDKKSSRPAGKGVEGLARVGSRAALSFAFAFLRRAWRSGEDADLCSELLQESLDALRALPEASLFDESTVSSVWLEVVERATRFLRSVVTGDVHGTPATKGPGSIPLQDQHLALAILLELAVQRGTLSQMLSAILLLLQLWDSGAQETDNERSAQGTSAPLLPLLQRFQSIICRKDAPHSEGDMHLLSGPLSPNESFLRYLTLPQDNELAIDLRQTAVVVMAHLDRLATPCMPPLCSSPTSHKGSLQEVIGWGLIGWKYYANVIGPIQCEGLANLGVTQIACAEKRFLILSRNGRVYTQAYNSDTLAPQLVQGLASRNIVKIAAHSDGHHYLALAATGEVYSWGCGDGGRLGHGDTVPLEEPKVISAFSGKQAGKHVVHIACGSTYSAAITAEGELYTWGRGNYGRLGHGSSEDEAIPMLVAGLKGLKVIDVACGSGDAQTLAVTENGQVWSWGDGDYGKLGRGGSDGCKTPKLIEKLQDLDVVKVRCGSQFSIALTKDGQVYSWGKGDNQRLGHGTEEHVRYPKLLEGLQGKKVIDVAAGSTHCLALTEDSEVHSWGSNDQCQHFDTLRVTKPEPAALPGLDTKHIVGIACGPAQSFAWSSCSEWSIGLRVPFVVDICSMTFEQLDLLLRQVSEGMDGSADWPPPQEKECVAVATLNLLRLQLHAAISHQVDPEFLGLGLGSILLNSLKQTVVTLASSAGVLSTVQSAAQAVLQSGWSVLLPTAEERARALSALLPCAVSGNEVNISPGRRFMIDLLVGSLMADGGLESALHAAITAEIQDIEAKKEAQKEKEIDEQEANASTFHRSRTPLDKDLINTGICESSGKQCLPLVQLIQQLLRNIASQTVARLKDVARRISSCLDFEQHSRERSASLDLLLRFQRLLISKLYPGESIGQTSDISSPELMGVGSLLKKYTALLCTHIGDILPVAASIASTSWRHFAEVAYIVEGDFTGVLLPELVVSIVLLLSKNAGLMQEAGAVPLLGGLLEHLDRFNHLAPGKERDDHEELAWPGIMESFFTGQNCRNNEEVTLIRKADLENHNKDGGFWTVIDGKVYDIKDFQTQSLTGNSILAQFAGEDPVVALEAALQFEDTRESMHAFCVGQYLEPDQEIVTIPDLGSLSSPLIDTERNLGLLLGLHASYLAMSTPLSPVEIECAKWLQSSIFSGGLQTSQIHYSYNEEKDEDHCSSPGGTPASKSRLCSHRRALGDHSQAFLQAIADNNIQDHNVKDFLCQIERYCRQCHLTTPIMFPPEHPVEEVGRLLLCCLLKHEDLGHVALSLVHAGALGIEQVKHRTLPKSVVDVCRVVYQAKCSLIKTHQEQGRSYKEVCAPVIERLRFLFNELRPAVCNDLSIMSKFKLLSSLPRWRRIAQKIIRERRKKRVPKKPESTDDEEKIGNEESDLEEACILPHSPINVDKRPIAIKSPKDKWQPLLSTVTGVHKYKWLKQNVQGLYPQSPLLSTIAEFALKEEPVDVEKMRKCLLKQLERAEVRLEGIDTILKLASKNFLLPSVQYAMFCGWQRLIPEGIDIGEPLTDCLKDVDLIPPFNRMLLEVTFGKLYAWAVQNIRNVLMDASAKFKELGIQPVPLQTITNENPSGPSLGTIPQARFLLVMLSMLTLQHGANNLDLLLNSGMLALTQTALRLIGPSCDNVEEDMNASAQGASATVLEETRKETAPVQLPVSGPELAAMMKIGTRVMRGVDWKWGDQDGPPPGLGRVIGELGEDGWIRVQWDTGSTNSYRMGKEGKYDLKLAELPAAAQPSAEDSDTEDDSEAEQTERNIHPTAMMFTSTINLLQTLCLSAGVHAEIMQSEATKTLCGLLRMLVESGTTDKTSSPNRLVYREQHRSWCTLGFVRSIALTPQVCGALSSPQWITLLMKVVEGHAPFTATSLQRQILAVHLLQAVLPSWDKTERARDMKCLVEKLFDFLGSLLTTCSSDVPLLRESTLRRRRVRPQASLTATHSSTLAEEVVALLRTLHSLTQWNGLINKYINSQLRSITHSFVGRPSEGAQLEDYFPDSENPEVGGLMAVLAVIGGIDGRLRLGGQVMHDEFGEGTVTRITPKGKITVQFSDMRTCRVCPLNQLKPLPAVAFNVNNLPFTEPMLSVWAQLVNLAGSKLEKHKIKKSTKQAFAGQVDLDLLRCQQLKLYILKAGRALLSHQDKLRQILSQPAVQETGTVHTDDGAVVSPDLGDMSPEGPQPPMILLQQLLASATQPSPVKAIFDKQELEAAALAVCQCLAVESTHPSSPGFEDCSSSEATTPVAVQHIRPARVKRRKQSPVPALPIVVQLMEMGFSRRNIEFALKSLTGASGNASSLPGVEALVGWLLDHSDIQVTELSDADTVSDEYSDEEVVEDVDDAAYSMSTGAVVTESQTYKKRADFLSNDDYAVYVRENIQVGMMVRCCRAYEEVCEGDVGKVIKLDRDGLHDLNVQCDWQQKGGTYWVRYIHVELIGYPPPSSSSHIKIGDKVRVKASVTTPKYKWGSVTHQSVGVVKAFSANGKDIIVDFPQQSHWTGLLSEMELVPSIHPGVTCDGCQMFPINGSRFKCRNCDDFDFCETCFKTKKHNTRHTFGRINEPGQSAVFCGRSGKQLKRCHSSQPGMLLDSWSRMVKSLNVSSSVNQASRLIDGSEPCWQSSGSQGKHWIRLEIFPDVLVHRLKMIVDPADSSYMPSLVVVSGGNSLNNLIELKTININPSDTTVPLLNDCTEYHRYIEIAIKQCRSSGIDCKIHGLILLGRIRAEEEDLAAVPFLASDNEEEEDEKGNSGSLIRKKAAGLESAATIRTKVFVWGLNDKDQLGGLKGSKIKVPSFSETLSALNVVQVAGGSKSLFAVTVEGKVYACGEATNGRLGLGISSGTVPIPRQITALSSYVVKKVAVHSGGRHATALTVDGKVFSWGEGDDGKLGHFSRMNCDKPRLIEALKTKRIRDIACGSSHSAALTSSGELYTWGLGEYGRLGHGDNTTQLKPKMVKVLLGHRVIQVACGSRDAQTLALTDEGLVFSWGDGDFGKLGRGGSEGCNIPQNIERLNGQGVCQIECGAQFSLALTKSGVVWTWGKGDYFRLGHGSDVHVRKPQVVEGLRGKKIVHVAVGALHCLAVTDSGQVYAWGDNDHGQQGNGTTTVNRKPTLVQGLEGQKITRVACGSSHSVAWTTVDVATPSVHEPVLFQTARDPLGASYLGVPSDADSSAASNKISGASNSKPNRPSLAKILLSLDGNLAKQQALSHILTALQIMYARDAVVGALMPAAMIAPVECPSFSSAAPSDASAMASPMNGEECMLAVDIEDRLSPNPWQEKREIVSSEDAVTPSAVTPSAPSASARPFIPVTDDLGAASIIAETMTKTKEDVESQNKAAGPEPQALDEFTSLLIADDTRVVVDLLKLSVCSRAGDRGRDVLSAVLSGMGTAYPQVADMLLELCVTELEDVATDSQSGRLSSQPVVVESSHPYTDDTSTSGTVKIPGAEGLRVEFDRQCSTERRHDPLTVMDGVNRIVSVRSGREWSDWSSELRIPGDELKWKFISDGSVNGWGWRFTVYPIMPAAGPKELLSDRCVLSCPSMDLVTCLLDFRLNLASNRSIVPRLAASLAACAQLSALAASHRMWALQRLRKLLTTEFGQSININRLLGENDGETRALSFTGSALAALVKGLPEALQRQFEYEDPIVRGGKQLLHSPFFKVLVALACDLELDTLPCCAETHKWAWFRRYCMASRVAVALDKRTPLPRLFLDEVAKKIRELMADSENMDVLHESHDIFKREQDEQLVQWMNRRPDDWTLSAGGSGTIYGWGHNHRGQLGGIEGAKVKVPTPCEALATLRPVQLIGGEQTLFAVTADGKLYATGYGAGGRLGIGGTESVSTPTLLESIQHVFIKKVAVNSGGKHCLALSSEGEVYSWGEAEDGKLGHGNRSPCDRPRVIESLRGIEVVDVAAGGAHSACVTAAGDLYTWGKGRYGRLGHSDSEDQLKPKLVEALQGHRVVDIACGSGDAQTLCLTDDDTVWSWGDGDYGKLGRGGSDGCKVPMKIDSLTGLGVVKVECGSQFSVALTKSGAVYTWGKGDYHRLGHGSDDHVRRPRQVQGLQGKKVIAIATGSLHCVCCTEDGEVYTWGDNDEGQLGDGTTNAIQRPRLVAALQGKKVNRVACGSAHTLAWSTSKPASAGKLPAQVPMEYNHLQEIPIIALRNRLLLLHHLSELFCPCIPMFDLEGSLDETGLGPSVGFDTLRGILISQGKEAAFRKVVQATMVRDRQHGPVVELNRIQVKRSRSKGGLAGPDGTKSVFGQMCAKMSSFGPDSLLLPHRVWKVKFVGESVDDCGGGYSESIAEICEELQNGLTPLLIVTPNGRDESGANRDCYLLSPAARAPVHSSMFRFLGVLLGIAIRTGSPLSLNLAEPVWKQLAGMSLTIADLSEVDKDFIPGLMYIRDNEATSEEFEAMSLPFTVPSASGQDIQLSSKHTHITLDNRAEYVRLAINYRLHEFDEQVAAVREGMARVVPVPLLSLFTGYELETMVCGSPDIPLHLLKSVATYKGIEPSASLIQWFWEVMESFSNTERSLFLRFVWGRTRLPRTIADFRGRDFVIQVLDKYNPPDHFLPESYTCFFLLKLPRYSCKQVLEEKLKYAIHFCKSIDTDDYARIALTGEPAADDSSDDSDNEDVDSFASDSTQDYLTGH

What was measured:
[1] = target: T1, FANCA (human (endogenous in 293FT and EndoC-βH3)) (UniProt O15360); assay: affinity purification with mass spectrometry; endogenous FANCA precipitated from 293FT lysate (NETN buffer) with anti-FANCA antibody coupled to Dynabeads, 2 h at 4°C; rabbit IgG as negative control; LC-MS/MS, SAINT (BFDR ≤ 0.05, SAINT score ≥ 0.8); biological duplicates
T1 sequence: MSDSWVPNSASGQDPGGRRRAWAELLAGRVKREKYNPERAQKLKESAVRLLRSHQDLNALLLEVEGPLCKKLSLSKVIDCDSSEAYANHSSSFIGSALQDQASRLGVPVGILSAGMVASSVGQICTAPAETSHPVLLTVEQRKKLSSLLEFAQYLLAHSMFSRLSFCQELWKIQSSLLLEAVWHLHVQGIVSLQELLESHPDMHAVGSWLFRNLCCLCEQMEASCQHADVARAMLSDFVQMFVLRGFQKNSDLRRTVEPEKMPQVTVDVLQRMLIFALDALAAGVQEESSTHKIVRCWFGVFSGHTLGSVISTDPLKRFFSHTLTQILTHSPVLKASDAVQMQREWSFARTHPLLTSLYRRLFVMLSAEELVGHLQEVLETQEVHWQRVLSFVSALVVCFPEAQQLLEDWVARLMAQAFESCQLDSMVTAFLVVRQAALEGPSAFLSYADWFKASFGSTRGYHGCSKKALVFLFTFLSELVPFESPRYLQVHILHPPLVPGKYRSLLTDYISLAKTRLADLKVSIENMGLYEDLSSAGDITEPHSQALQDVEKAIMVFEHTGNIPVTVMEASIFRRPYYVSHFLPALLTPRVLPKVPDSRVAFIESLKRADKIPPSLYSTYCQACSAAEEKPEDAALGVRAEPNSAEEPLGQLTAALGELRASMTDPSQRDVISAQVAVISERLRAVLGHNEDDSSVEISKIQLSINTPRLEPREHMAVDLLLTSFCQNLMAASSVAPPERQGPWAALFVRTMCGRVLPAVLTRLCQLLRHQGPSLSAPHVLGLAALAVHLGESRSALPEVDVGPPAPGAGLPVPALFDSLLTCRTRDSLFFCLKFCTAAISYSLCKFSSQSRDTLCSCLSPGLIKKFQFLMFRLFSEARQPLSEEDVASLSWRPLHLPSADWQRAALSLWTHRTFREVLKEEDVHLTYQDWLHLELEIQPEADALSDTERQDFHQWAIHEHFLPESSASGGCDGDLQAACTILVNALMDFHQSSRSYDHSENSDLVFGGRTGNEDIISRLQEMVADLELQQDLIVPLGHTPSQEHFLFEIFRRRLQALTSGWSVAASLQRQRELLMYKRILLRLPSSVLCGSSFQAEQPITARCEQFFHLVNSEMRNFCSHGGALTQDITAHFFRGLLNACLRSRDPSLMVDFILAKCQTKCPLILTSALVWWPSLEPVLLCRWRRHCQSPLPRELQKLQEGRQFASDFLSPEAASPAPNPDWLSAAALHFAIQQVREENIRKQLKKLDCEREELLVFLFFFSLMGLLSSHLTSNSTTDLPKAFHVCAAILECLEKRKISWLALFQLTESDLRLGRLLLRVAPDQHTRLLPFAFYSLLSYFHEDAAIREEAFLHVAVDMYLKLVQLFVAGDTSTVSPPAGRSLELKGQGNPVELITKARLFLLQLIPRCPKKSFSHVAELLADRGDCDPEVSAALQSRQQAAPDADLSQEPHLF

[2] = target: T1, FANCA (human (endogenous in 293FT and EndoC-βH3)); assay: condition: only cells in 5 mM glucose (not glucose-stimulated); affinity purification with mass spectrometry; as a2, only the EndoC-βH3 cells cultured in 5 mM glucose (not stimulated)
[3] = target: T1, FANCA (human (endogenous in 293FT and EndoC-βH3)); assay: affinity purification with mass spectrometry; endogenous FANCA precipitated from lysate of EndoC-βH3 cells cultured in 5 mM or 20 mM glucose, anti-FANCA antibody coupled to Dynabeads, 2 h at 4°C; LC-MS/MS, SAINT (BFDR ≤ 0.05, SAINT score = 1.0); biological duplicates
[4] = target: T1, FANCA (human (endogenous in 293FT and EndoC-βH3)); assay: affinity purification with mass spectrometry; endogenous FANCA precipitated from 293FT lysate (NETN buffer) with anti-FANCA antibody coupled to Dynabeads, 2 h at 4°C; rabbit IgG as negative control; LC-MS/MS, SAINT (BFDR ≤ 0.05, SAINT score ≥ 0.8); biological duplicates; remark: listed apart in the source

- binding [1]: binds
Molecule: MSH3 (from UniProt P20585 1-1137)

- binding [1]: binds
Molecule: RFC4 (from UniProt P35249 1-363)

- binding [1]: binds
Molecule: HERC2 (from UniProt O95714 1-4834)

- binding [1]: binds
Molecule: RFC2 (from UniProt P35250 1-354)

- binding [1]: binds
Molecule: RFC5 (from UniProt P40937 1-340)

- binding [2]: no binding
- binding [3]: binds
- binding [4]: binds
B1: FAAP100 (protein, UniProt Q0VG06 1-881)
chain: MAGAAPRVRYLAGFCCPLGGLAAGKPRVLCHEAEVFLSTGSELVYVYDQEGGLLTAAFRFPDQVWHLELLAPRRLLYALCARRGLYCLSLDHPGRSRSTSQDDRDSEDGDQPSPVIPVDPDACILPDAALCAFTLLDSVLVTLVQGPARWKMQLFEQPCPGEDPRPGGQIGEVELSSYTPPAGVPGKPAAPHFLPVLCSVSPSGSRVPHDLLGGSGGFTLEDALFGLLFGADATLLQSPVVLCGLPDGQLCCVILKALVTSRSAPGDPNALVKILHHLEEPVIFIGALKTEPQAAEAAENFLPDEDVHCDCLVAFGHHGRMLAIKASWDESGKLVPELREYCLPGPVLCAACGGGGRVYHSTPSDLCVVDLSRGSTPLGPEQPEEGPGGLPPMLCPASLNICSVVSLSASPRTHEGGTKLLALSAKGRLMTCSLDLDSEMPGPARMTTESAGQKIKELLSGIGNISERVSFLKKAVDQRNKALTSLNEAMNVSCALLSSGTGPRPISCTTSTTWSRLQTQDVLMATCVLENSSSFSLDQGWTLCIQVLTSSCALDLDSACSAITYTIPVDQLGPGARREVTLPLGPGENGGLDLPVTVSCTLFYSLREVVGGALAPSDSEDPFLDECPSDVLPEQEGVCLPLSRHTVDMLQCLRFPGLAPPHTRAPSPLGPTRDPVATFLETCREPGSQPAGPASLRAEYLPPSVASIKVSAELLRAALKDGHSGVPLCCATLQWLLAENAAVDVVRARALSSIQGVAPDGANVHLIVREVAMTDLCPAGPIQAVEIQVESSSLADICRAHHAVVGRMQTMVTEQATQGSSAPDLRVQYLRQIHANHETLLREVQTLRDRLCTEDEASSCATAQRLLQVYRQLRHPSLILL

- binding [2]: no binding
- binding [3]: binds
B2: FANCF (protein, UniProt Q9NPI8 1-374)
chain: MESLLQHLDRFSELLAVSSTTYVSTWDPATVRRALQWARYLRHIHRRFGRHGPIRTALERRLHNQWRQEGGFGRGPVPGLANFQALGHCDVLLSLRLLENRALGDAARYHLVQQLFPGPGVRDADEETLQESLARLARRRSAVHMLRFNGYRENPNLQEDSLMKTQAELLLERLQEVGKAEAERPARFLSSLWERLPQNNFLKVIAVALLQPPLSRRPQEELEPGIHKSPGEGSQVLVHWLLGNSEVFAAFCRALPAGLLTLVTSRHPALSPVYLGLLTDWGQRLHYDLQKGIWVGTESQDVPWEELHNRFQSLCQAPPPLKDKVLTALETCKAQDGDFEVPGLSIWTDLLLALRSGAFRKRQVLGLSAGLSSV

- binding [3]: binds
- binding [4]: binds
B3: FANCL (protein, UniProt Q9NW38 1-375)
chain: MAVTEASLLRQCPLLLPQNRSKTVYEGFISAQGRDFHLRIVLPEDLQLKNARLLCSWQLRTILSGYHRIVQQRMQHSPDLMSFMMELKMLLEVALKNRQELYALPPPPQFYSSLIEEIGTLGWDKLVYADTCFSTIKLKAEDASGREHLITLKLKAKYPAESPDYFVDFPVPFCASWTPQSSLISIYSQFLAAIESLKAFWDVMDEIDEKTWVLEPEKPPRSATARRIALGNNVSINIEVDPRHPTMLPECFFLGADHVVKPLGIKLSRNIHLWDPENSVLQNLKDVLEIDFPARAILEKSDFTMDCGICYAYQLDGTIPDQVCDNSQCGQPFHQICLYEWLRGLLTSRQSFNIIFGECPYCSKPITLKMSGRKH

- binding [2]: no binding
- binding [3]: binds
- binding [4]: binds
B4: FANCB (protein, UniProt Q8NB91 1-859)
chain: MTSKQAMSSNEQERLLCYNGEVLVFQLSKGNFADKEPTKTPILHVRRMVFDRGTKVFVQKSTGFFTIKEENSHLKIMCCNCVSDFRTGINLPYIVIEKNKKNNVFEYFLLILHSTNKFEMRLSFKLGYEMKDGLRVLNGPLILWRHVKAFFFISSQTGKVVSVSGNFSSIQWAGEIENLGMVLLGLKECCLSEEECTQEPSKSDYAIWNTKFCVYSLESQEVLSDIYIIPPAYSSVVTYVHICATEIIKNQLRISLIALTRKNQLISFQNGTPKNVCQLPFGDPCAVQLMDSGGGNLFFVVSFISNNACAVWKESFQVAAKWEKLSLVLIDDFIGSGTEQVLLLFKDSLNSDCLTSFKITDLGKINYSSEPSDCNEDDLFEDKQENRYLVVPPLETGLKVCFSSFRELRQHLLLKEKIISKSYKALINLVQGKDDNTSSAEEKECLVPLCGEEENSVHILDEKLSDNFQDSEQLVEKIWYRVIDDSLVVGVKTTSSLKLSLNDVTLSLLMDQAHDSRFRLLKCQNRVIKLSTNPFPAPYLMPCEIGLEAKRVTLTPDSKKEESFVCEHPSKKECVQIITAVTSLSPLLTFSKFCCTVLLQIMERESGNCPKDRYVVCGRVFLSLEDLSTGKYLLTFPKKKPIEHMEDLFALLAAFHKSCFQITSPGYALNSMKVWLLEHMKCEIIKEFPEVYFCERPGSFYGTLFTWKQRTPFEGILIIYSRNQTVMFQCLHNLIRILPINCFLKNLKSGSENFLIDNMAFTLEKELVTLSSLSSAIAKHESNFMQRCEVSKGKSSVVAAALSDRRENIHPYRKELQREKKKMLQTNLKVSGALYREITLKVAEVQLKSDFAAQKLSNL

- binding [2]: no binding
- binding [3]: binds
B5: FANCE (protein, UniProt Q9HB96 1-536)
chain: MATPDAGLPGAEGVEPAPWAQLEAPARLLLQALQAGPEGARRGLGVLRALGSRGWEPFDWGRLLEALCREEPVVQGPDGRLELKPLLLRLPRICQRNLMSLLMAVRPSLPESGLLSVLQIAQQDLAPDPDAWLRALGELLRRDLGVGTSMEGASPLSERCQRQLQSLCRGLGLGGRRLKSPQAPDPEEEENRDSQQPGKRRKDSEEEAASPEGKRVPKRLRCWEEEEDHEKERPEHKSLESLADGGSASPIKDQPVMAVKTGEDGSNLDDAKGLAESLELPKAIQDQLPRLQQLLKTLEEGLEGLEDAPPVELQLLHECSPSQMDLLCAQLQLPQLSDLGLLRLCTWLLALSPDLSLSNATVLTRSLFLGRILSLTSSASRLLTTALTSFCAKYTYPVCSALLDPVLQAPGTGPAQTELLCCLVKMESLEPDAQVLMLGQILELPWKEETFLVLQSLLERQVEMTPEKFSVLMEKLCKKGLAATTSMAYAKLMLTVMTKYQANITETQRLGLAMALEPNTTFLRKSLKAALKHLGP
